In PubChem BioAssay AID651660 (Broad Institute, 2012):
Where “and” joins values, the source holds several entries; their conditions need not be identical. Identical values can stand only once. Among all 1,900 compounds or so, about 15 (0.8%) were called active.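 Rule for the calls: active = every replicate shows at least 50% inhibition; inconclusive = mean inhibition at least 50% but some replicate below; inactive = the rest.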 Some of the results follow.

Sequences of proteins named here, by UniProt entry; tags and fusion partners are left off. A change or cut given only in a name is not applied to a line headed by its entry.
UniProt P43351: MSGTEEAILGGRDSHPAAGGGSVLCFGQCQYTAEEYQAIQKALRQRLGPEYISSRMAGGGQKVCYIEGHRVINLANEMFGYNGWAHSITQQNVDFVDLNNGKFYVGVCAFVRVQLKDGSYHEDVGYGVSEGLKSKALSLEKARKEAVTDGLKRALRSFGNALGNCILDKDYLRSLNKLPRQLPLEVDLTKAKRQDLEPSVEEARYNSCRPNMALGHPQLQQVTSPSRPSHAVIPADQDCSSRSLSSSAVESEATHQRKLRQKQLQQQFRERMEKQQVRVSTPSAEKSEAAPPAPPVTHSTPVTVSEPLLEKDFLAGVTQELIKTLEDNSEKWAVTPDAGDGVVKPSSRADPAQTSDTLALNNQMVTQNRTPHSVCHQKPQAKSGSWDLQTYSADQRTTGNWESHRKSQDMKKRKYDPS

These molecules were tested against DNA repair protein RAD52 homolog (Homo sapiens) (UniProt P43351) (assay: RAD52 ssDNA annealing inhibitors, primary screen, biochemical, FRET, single point (AID 651660;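 note: 0% = median of neutral control wells and 100% = median of positive control wells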)). Details: Recombinant RAD52 ssDNA annealing, FRET fluorescence, 30 min; at 18.7 µM; hits give high values.

| Structure (SMILES) | inhibition |
| --- | --- |
| COc1ccc(CCCC(=O)O)c(C)c1 | inactive: -12.7% |
| CCOC(=O)c1cc2cc3ccccc3cc2[nH]1 | inactive: -86% |
| COc1ccc(CNC(=O)C2CCN(C(=O)[C@@H](CC(C)C)NC(=O)OC(C)(C)C)CC2)cc1 | inactive: 2.06% |
| CC(C)(CO)CNC(=O)CC1C(=O)NCCN1CC(c1ccccc1)c1ccccc1 (stereo not given) | inactive: -15.5% |
| CCOc1cc(C=O)ccc1OCCSc1ccc(C)cc1 | inactive: 2.25% |
| COCC1CCCN(Cc2cn[nH]c2-c2cc3ccccc3o2)C1 (stereo not given) | inactive: 0.195% |
| O=C1OC(c2ccc(O)cc2)(c2ccc(O)cc2)c2ccccc21 | inactive: -2.96% |
| Cc1ccc(N(CC2=NCCN2)c2cccc(O)c2)cc1 | inactive: -2.03% and inactive: -1.72% and inactive: -1.9% |
| O=Cc1ccc(OC(=O)c2cccnc2)cc1 | inactive: -1.95% |
| O=C(CN1CCN(Cc2ccccc2)CC1)N1CCCc2c1c(=O)oc1ccc(O)cc21 | inactive: 11.7% |
| COc1ccccc1C1(CC(=O)N2CCCCC2)CCOC(C(C)C)C1 (stereo not given) | inactive: 7.87% |
| Cn1c(=O)[nH]c(=O)c2c1ncn2CCN1CCOCC1 | inactive: -9.6% |
| O=C(NCCO)c1ccc(Cl)c(Cl)c1 | inactive: 11% |
| COc1ccc(N2CCN(C(=S)NCc3ccccc3)CC2)cc1 | inactive: -1.31% |
| N#Cc1cc2c([nH]c1=O)CCCC2 | inactive: 4.5% |
| COc1ccc(C=NCC2COc3ccccc3O2)cc1OC (stereo not given) | inactive: 6.1% |
| c1ccc(CC2=NCCN2)cc1 | inactive: -6.79% |
| O=C(Nc1ccc(C(=O)NC2CCCCC2)cc1)c1cccnc1 | inactive: -12% |
| O=C(NC1CCCCC1)N1CCc2[nH]c3ccccc3c2C1 | inactive: -7.75% |
| CCOC(=O)C(=O)N1CCN(c2ccccc2OC)CC1 | inactive: -2.13% |
| CC(C)(Oc1ccc(CCNC(=O)c2ccc(Cl)cc2)cc1)C(=O)O | inactive: -4.68% |
| OCCN1CCN(CCCN2c3ccccc3Sc3ccc(C(F)(F)F)cc32)CC1 | active: 65.2% |
| CN(C)c1ccc(O)c2c1CC1CC3[C@@H](N(C)C)C(=O)C(C(N)=O)=C(O)[C@]3(O)C(=O)C1=C2O (stereo not given in full) | inactive: 39.1% |
| CC(=O)OCC(=O)[C@H]1CC[C@H]2[C@@H]3CC=C4C[C@@H](O)CC[C@]4(C)[C@H]3CC[C@]12C | inactive: -2.28% |
| O=C(O)C1Cc2ccccc2CN1S(=O)(=O)c1ccccc1 (stereo not given) | inactive: -4.56% |

| Structure (SMILES) | inhibition |
| --- | --- |
| Clc1ccc2c(c1)C(N1CCNCC1)=Nc1ccccc1O2 | inactive: 2.92% |
| O=C1c2ccccc2C(=O)C1c1ccccc1 | inactive: -1.1% |
| CCc1cc(=O)oc2cc(OCC=C(C)C)ccc12 | inactive: 6.25% |
| CC(C)=CC/C=C1\CCC(C(=O)O)C(C(=O)O)C1 (stereo not given) | inactive: -9.36% |
| O=C(CN1C(=O)/C(=C/c2cccc(Br)c2)SC1=S)Nc1cccnc1 | inactive: -38.2% |
| N/C(=N\OS(=O)(=O)c1ccc2ccccc2c1)c1cccnc1 | inactive: -4.19% |
| CCOC(=O)N1CCC(=C2c3ccc(Cl)cc3CCc3cccnc32)CC1 | inactive: -6.11% |
| Cc1ccc2[nH]c(=O)c(Cc3ccccc3)c(O)c2c1 | inactive: -9.59% |
| CC1CCN(C(=O)Oc2ccccc2)CC1 | inactive: 2.36% |
| COCCCC/C(=N\OCCN)c1ccc(C(F)(F)F)cc1 | inactive: 14.2% |
| C[C@]12CCC(=O)C=C1CC[C@@H]1[C@@H]2C(=O)C[C@@]2(C)[C@H]1CC[C@]2(O)C(=O)CO | inactive: 5.33% |
| O=C(O)CCSc1nc2ccccc2s1 | inactive: -17.9% |
| CC(C)(C)C(=O)Nc1cccc(OC(F)(F)C(F)Cl)c1 (stereo not given) | inactive: 15.6% |
| C[C@@H]1C[C@H]2[C@@H]3C[C@H](F)C4=CC(=O)C=C[C@]4(C)[C@@]3(F)[C@@H](O)C[C@]2(C)[C@@]1(O)C(=O)CO | inactive: 12.3% |
| O=C(O)Cc1ccc(-c2ccccc2)cc1 | inactive: -6.53% |
| CCOC(=O)C1=C2c3ccc4ccccc4c3CC(C)(C)N2C(=O)C1=O | inactive: -12.6% |
| O=C(/C=C/c1ccc(F)cc1)N1CC[C@@]2(O)CCCC[C@H]2C1 | inactive: 8.57% |
| O=C1N=c2ccccc2=C1c1[nH]c(=S)[nH]c1O | inactive: 14.8% |
| CCCCCCCCCC(=O)OCC(O)CO (stereo not given) | inactive: 5.35% |
| COc1ccccc1N1C(=O)C2CC(C)=C(C)CC2C1=O (stereo not given) | inactive: -0.714% |
| O=C1C(O)CC2c3ccccc3CC3(CCCC3)N12 (stereo not given) | inactive: -23% |
| CN1CCN(C2=Nc3ccccc3Oc3ccc(Cl)cc32)CC1 | inactive: 6.55% |
| Cc1cccc(N2C(=O)C3C(c4ccccc4)OC4(C(=O)c5ccccc5C4=O)C3C2=O)c1 (stereo not given) | inactive: -11.3% |
| Cc1nc2ccccc2c(=O)n1N | inactive: -4.82% |
| COc1ccc(OC)c(-c2oc3ccccc3c(=O)c2O)c1 | inactive: 0.777% |

| Structure (SMILES) | inhibition |
| --- | --- |
| CCN(CC)CCOC(=O)C1(C2CCCCC2)CCCCC1 | inactive: -19.4% |
| N#CCC(N)=C(C#N)C#N | inactive: -37.2% |
| Cc1ccc2c(c1)c1c(n2C)C(=O)CCC1 | inactive: 8.41% |
| CN(C)CCCN1c2ccccc2Sc2ccc(C(F)(F)F)cc21 | inactive: 29.1% |
| O=C1C2CC=C(Cl)CC2C(=O)N1CCc1c[nH]c2ccccc12 (stereo not given) | inactive: -12.5% |
| CCNC1=C(Cl)C(=O)c2ccccc2C1=O | inactive: 9.01% |
| COC(=O)C1=C(C)NC(C)=C([N+](=O)[O-])C1c1ccccc1C(F)(F)F (stereo not given) | inactive: 4.19% |
| Nc1ccc(-c2nc3ncccc3o2)c(Cl)c1 | inactive: 2.78% |
| C/C=C/c1ccc(OCCCCN2CC(C)CC(C)C2)c(OC)c1 (stereo not given) | inactive: 1.05% |
| O=C(Cc1ccc(Br)cc1)c1ccc(O)cc1O | inactive: 2.85% |
| CCn1cc(CN2N=C(C)CC2c2ccccc2)c(C)n1 (stereo not given) | inactive: -16.9% |
| CC[N+](C)(CC)CCOC(=O)C(O)(c1ccccc1)C1CCCCC1 (stereo not given) | inactive: -4.94% |
| CCOc1ccccc1Oc1coc2cc(OCC(=O)O)ccc2c1=O | inactive: -12.3% |
| CN(C)c1ccc(C(CN)c2c[nH]c3ccccc23)cc1 (stereo not given) | inactive: -2.21% |
| COc1ccc2[nH]c(=O)c3c(c2c1)OC(C)(C)C=C3 | inactive: -5.72% |
| O=C(NC(=S)Nc1ccc(N2CCN(C(=O)c3ccccc3)CC2)cc1)c1cccs1 | inactive: -1.18% |
| COc1cc(/C=C/C(=O)O)cc(S(=O)(=O)NCCCO)c1OC | inactive: -11% |
| Cc1ccc(-c2nnc(-c3ccc4c(c3)OCO4)o2)cc1 | inactive: -10.6% |
| CC[N+](C)(C)c1cccc(O)c1 | inactive: -5.91% |
| COc1ccc(C(=O)NCC2OCCc3ccccc32)cc1 (stereo not given) | inactive: -3.94% |
| CCCCN(CCCC)CCCOC(=O)c1ccc(N)cc1 | inactive: 3.29% |
| O=C(O)CCCCCCCC(=O)O | inactive: -9.18% |
| O=C(NCc1ccc2c(c1)OCO2)c1ccc2c(c1)OCCO2 | inactive: -8.16% |
| NS(=O)(=O)c1cc(C2(O)NC(=O)c3ccccc32)ccc1Cl (stereo not given) | inactive: -8.05% |
| O=C(NC(=S)Nc1ccc2c(c1)OCCO2)c1ccccc1F | inactive: -2.94% |

| Structure (SMILES) | inhibition |
| --- | --- |
| CC(=O)Nc1ccc(OS(=O)(=O)c2c(C)cc(C)cc2C)cc1 | inactive: 7.13% |
| COc1ccc(NC(=O)C2CCCN2C(=O)OC(C)(C)C)cc1 (stereo not given) | inactive: -0.715% |
| CCCc1cc(C(N)=S)ccn1 | inactive: -4.37% |
| CC(=O)c1cc2c(cc1NC(=O)c1ccco1)OCCO2 | inactive: -17.2% |
| CC(C)CCOCC(=O)Nc1cccc(C(=O)O)c1 | inactive: -8.13% |
| Cc1ccc2[nH]c3c(c2c1)CN(C)CC3 | inactive: -1.25% |
| CC(=O)OC(CC(=O)O)C[N+](C)(C)C (stereo not given) | inactive: -2.75% |
| CC1(C)Cc2ccccc2C(C(Cc2ccccc2)C(N)=O)=N1 (stereo not given) | inactive: 3.53% |
| COc1ccc2oc(C)c(C(N)=O)c2c1 | inactive: 2.34% |
| Cn1cc(CN(CCO)Cc2cccs2)c(-c2cccc(Cl)c2)n1 | inactive: 12.5% |
| CN1CCC(=C2c3ccccc3C=Cc3ccccc32)CC1 | inactive: 3.15% |
| CNCCC=C1c2ccccc2CCc2ccccc21 | inactive: 4.52% |
| CC[C@]1(O)CC2CN(CCc3c([nH]c4ccccc34)[C@@](C(=O)OC)(c3cc4c(cc3OC)N(C=O)[C@H]3[C@@](O)(C(=O)OC)[C@H](OC(C)=O)[C@]5(CC)C=CCN6CC[C@]43[C@@H]65)C2)C1 (stereo not given in full) | inactive: -22.9% |
| O=C(c1ccccc1F)c1cc2c(cc1[N+](=O)[O-])OCCO2 | inactive: -0.243% |
| Cc1ccc(S(=O)(=O)NC(=O)Nc2cc(C)ccc2F)cc1 | inactive: -14.5% |
| O=C1OC(c2ccccc2)=C/C1=C/c1cccs1 | inactive: -5.59% |
| O=C1C(Cc2ccccc2)NC(=S)N1c1ccccc1 (stereo not given) | inactive: -7.95% |
| Cc1ccc(/C(=C\CN2CCCC2)c2ccccn2)cc1 | inactive: 4.68% |
| O=C(O)CCCN1C(=O)NC2NC(=O)NC21 (stereo not given) | inactive: -3.7% |
| CCOc1ccc(NC2OC(C)C(O)C(O)C2O)c([N+](=O)[O-])c1 (stereo not given) | inactive: -2.79% |
| CC1(C)CC(O)(CNCc2ccc3c(c2)OCO3)CCO1 (stereo not given) | inactive: 9.6% |
| COc1ccc2c3c([nH]c2c1)C1(NCC3)C(=O)Nc2ccccc21 (stereo not given) | inactive: 3.02% |
| Cn1nc(-c2ccc(Cl)cc2)nc2c(=O)n(C)c(=O)nc1-2 | inactive: -131% |
| COc1ccccc1/C=C/CN1CCN(Cc2ccc(F)cc2)C(CCO)C1 (stereo not given) | inactive: 2.58% |
| NC(=O)c1ncn([C@@H]2O[C@H](CO)[C@@H](O)[C@H]2O)c1O | inactive: 1.91% |
